Experimental data reported in PubChem BioAssay AID540276 (National Center for Advancing Translational Sciences (NCATS), 2011).
Values joined by “and” are separate entries in the source; they are usually repeats but may differ in a detail not shown here. Equal entries are not always repeated. The whole screen tested about 300,000 compounds, of which about 5,400 (1.8%) were called active. Inconclusive means that the source gave no clear call. Such entries were picked first, then a sample of the others. The call rests on the fitted dose curve; tested in HEK293 cells. A potency beside an inconclusive call is a rough fit, not a confirmed value.
On the % scale 0 is the no-effect control and ±100 the full control effect; potency means the concentration at half of the fitted maximal effect.

Assay: qHTS for inhibitors of binding or entry into cells for Marburg Virus
Settings: Marburg virus pseudotyped entry inhibition, cell reporter; activity change, negative = inhibition: at 37.8 µM (top of the series) unless noted
With `CC(C)(C)C(=O)Nc1cccc(S(=O)(=O)NC2=NCCC2)c1` the “activity change, negative = inhibition” value was inactive: 19.5%. In the case of `COc1cccc(C(=O)CSc2nnc(CNc3nc(-c4ccccc4)cs3)n2C)c1`, the “activity change, negative = inhibition” value is reported as inactive: -6.59%. With `Cc1cccc(NC(=S)N2CCC(c3nc4ccccc4o3)CC2)c1` the Potency was inconclusive: 10 µM [inhibitor, single point]. In the case of `CCOC(=O)c1cc(-c2ccc(C)cc2)n(CCC(=O)NCCCOC)c1C`, the Potency is reported as inconclusive: 0.0366 µM [inhibitor, full curve, poor fit]. For `O=C1CC(c2ccc(Cl)c([N+](=O)[O-])c2)c2ccc3ccccc3c2N1` (stereo not drawn), the Potency was inconclusive: 29.1 µM [inhibitor, single point]. For `CCCCN(CC)CCCNC(=O)c1cn(C)c(=O)c2c1c1ccccc1n2C`, the Potency was inconclusive: 8.91 µM [activator, single point]. In the case of `COc1ccc(N2CCN(C(=O)c3ccccc3)CC2)c([N+](=O)[O-])c1`, the “activity change, negative = inhibition” value is reported as inactive: -0.66% [at 46.1 µM]. With `c1ccc(-c2ccc(-c3[nH]ncc3CN3CCC(N4CCSCC4)CC3)cc2)cc1` the “activity change, negative = inhibition” value was inactive: -11.4%. In the case of `Cc1ccc(C(=O)NCc2ccncc2)cc1S(=O)(=O)N1CCOCC1`, the “activity change, negative = inhibition” value is reported as inactive: 25.9% [at 46.1 µM]. In the case of `Cc1nn(CCC(=O)Nc2cccc(C#N)c2)c(C)c1S(=O)(=O)N1CCCCC1`, the Potency is reported as inconclusive: 11.2 µM [inhibitor, partial curve, poor fit]. For `Cc1cccc(C)c1NC(=O)Cn1cc(C(=O)C2CC2)c2ccccc21`, the Potency was inconclusive: 0.562 µM [inhibitor, full curve, poor fit]. In the case of `CN1/C(=C/C(=O)c2ccc(Cl)cc2)Sc2cc3c(cc21)OCO3`, the Potency is reported as inconclusive: 1.26 µM [activator, partial curve, poor fit]. For `CCOC(=O)c1cccc(NC(=O)Nc2c(C)n(C)n(-c3ccccc3)c2=O)c1`, the “activity change, negative = inhibition” value was inactive: 16.1% [at 46.1 µM]. With `c1ccc(CCc2nc(-c3ccccc3)oc2Nc2ccc3ccccc3c2)cc1` the Potency was inconclusive: 0.15 µM [activator, full curve, poor fit]. In the case of `O=c1[nH]c(C2CCCN(S(=O)(=O)c3ccccc3)C2)nc2c1nnn2Cc1ccccc1Br` (stereo not drawn), the Potency is reported as inconclusive: 3.98 µM [inhibitor, full curve]. In the case of `Cc1nn(C)cc1S(=O)(=O)N1CCN(Cc2ccc(F)cc2Cl)CC1`, the Potency is reported as inconclusive: 31.6 µM [activator, single point]. For `Cc1ccc(C)n1-c1ccc(C(=O)N2CCC(C(N)=O)CC2)cc1`, the “activity change, negative = inhibition” value was inactive: -27.1% [at 46.1 µM]. With `CC(NCC(O)COCCC12CC3CC(CC(C3)C1)C2)c1ccccc1` (stereo not drawn) the Potency was active: 11.6 µM. In the case of `CC(C)=CCC/C(C)=C/CO/N=C1\C[C@@H](O)[C@@H](O)[C@@H]2[C@@H]3C(=O)N(c4ccc(F)cc4F)C(=O)[C@@H]3CC[C@@H]12`, the Potency is reported as inconclusive: 0.299 µM [inhibitor, partial curve, poor fit]. With `O=C(CSc1nnc(NC(=O)c2cccc(Br)c2)s1)NCC1CCCO1` (stereo not drawn) the “activity change, negative = inhibition” value was inactive: -6.83%. For `COc1ccc(CCNC(=O)C(=O)NCc2ccccc2)cc1OC`, the “activity change, negative = inhibition” value was inactive: -24%. With `O=C(CN1C(=O)COc2ccc(S(=O)(=O)N3CCCCCC3)cc21)N1CCN(c2ccc(Cl)cc2)CC1` the “activity change, negative = inhibition” value was inactive: 4.53% [at 46.1 µM]. For `CCOC(=O)C(C)n1nc(/C=C/c2ccccc2)ccc1=O` (stereo not drawn), the Potency was inconclusive: 35.5 µM [inhibitor, single point]. With `CCN(CC)CCNC(=O)c1cc2c(=O)n(C)c3ccccc3c2s1` the Potency was inconclusive: 11.2 µM [inhibitor, partial curve, poor fit]. For `COc1ccccc1/C=C/c1ccc2cccc(O)c2n1`, the Potency was inconclusive: 31.6 µM [inhibitor, single point]. For `CC1(c2ccc(OCC#N)cc2)C=C(c2ccc(OCC#N)cc2)n2nc(C(F)(F)F)nc2N1` (stereo not drawn), the Potency was inconclusive: 7.94 µM [inhibitor, partial curve, poor fit]. In the case of `O=C(Oc1ccccc1)N1CCN(C(=O)c2ccco2)CC1`, the Potency is reported as inconclusive: 35.5 µM [activator, single point]. With `O=C(NCc1cccnc1)/C(=C/c1ccccc1)NC(=O)c1ccccc1` the “activity change, negative = inhibition” value was inactive: 14.7% [at 46.1 µM]. For `Oc1ccc(C(c2nnnn2C2CCCC2)N2CCc3ccccc3C2)cc1` (stereo not drawn), the Potency was inconclusive: 0.562 µM [inhibitor, full curve, poor fit]. With `N#Cc1c2n(c3c(=S)nc[nH]c13)CCCCC2` the “activity change, negative = inhibition” value was inactive: -6%. For `CCCc1cnc(N2CCN(C(=S)NC)CC2)nc1`, the Potency was inconclusive: 0.316 µM [activator, full curve]. In the case of `FC(F)(F)c1ccccc1-n1c(-c2ccco2)n[nH]c1=S`, the “activity change, negative = inhibition” value is reported as inactive: -8% [at 46.1 µM]. With `COc1ccc(S(=O)(=O)N2CCCCCC2)cc1NS(=O)(=O)c1cc(C(=O)O)cc(C)c1C` the “activity change, negative = inhibition” value was inactive: -9.84%. In the case of `COCCCn1c2nc3ccccc3nc2c2c(=O)n(-c3ccccc3OC)cnc21`, the “activity change, negative = inhibition” value is reported as inactive: 9.89%. For `CCOC(=O)c1cc(-c2nnc(SCC(=O)Nc3ccc(F)cc3)o2)c(C)nc1C`, the “activity change, negative = inhibition” value was inactive: 4.04%. With `CCOC(=O)C1(CCOc2ccccc2)CCN(Cc2cccc(OC)c2OC)CC1` the Potency was inconclusive: 14.1 µM [inhibitor, partial curve, poor fit]. For `C=CCC(CC=C)(CNC(=O)C(=O)Nc1ccc(Br)cc1)c1ccc(OC)c(OC)c1`, the “activity change, negative = inhibition” value was inactive: -23.6% [at 46.1 µM]. For `CC(Sc1nnnn1-c1ccc(O)cc1)C(=O)NNC(=O)c1ccc(F)cc1` (stereo not drawn), the “activity change, negative = inhibition” value was inactive: -13.2%. In the case of `Cc1ccc(OCCCn2c(-c3ccc(Cl)cc3)nc3ccccc3c2=O)cc1C`, the “activity change, negative = inhibition” value is reported as inactive: -3.41% [at 46.1 µM]. For `O=C(CSc1ccsc1[N+](=O)[O-])NCCc1ccccc1`, the Potency was inconclusive: 1.64 µM [activator, partial curve, poor fit]. In the case of `O=C(Nc1ccc(F)cc1F)C1CCN(C(=O)c2cnn(-c3ccccc3)c2-n2cccc2)CC1`, the Potency is reported as inconclusive: 1.12 µM [inhibitor, full curve, poor fit]. In the case of `CC1CCC(C(C)C)C(OC(=O)Cn2c(COc3ccccc3)[n+](C)c3ccccc32)C1` (stereo not drawn), the Potency is reported as inconclusive: 6.31 µM [inhibitor, partial curve, poor fit]. With `O=[N+]([O-])c1ccc(NCc2ccc(Cl)cc2)nc1` the Potency was inconclusive: 3.55 µM [activator, single point]. With `Cc1ccc(O)c(-c2cc(C(=O)Nc3cccnc3)[nH]n2)c1` the Potency was inconclusive: 29.1 µM [inhibitor, single point]. In the case of `Cc1onc(-c2ccccc2Cl)c1C(=O)OCc1nnc(-c2ccccc2)o1`, the Potency is reported as inconclusive: 8.91 µM [inhibitor, partial curve]. In the case of `CCOC(=O)c1sc(N(Cc2ccccc2)C(=O)CCl)nc1C`, the Potency is reported as inconclusive: 16.4 µM [inhibitor, single point]. With `CCc1ccc(OCCNC(=O)c2ccccc2SCc2ccccc2)cc1` the Potency was inconclusive: 8.91 µM [inhibitor, partial curve, poor fit]. In the case of `c1nc(NCC2CCCO2)c2[nH]cnc2n1` (stereo not drawn), the Potency is reported as inconclusive: 6.51 µM [activator, single point]. In the case of `CC(=O)Nc1ccc(NCc2cccs2)cc1`, the “activity change, negative = inhibition” value is reported as inactive: 19.4% [at 46.1 µM]. For `O=C(C1CCOCC1)N1CCCC(N2CCN(c3cccc(Cl)c3)CC2)C1` (stereo not drawn), the Potency was inconclusive: 35.5 µM [activator, single point]. For `Cc1cc(C)c(NC(=O)c2cccs2)c(C)c1NC(=O)c1cccs1`, the Potency was inconclusive: 14.1 µM [inhibitor, partial curve, poor fit]. In the case of `O=C(CS(=O)(=O)c1cn(CC(=O)N2CCCC2)c2ccccc12)Nc1ccccc1F`, the “activity change, negative = inhibition” value is reported as inactive: 0.871%. For `O=C1/C(=C/c2ccc(F)cc2)SC(=S)N1Nc1ncc(C(F)(F)F)cc1Cl`, the “activity change, negative = inhibition” value was inactive: 18.7%. In the case of `Oc1c(Cl)cccc1Cc1cc(Cl)cc(Cl)c1O`, the Potency is reported as inconclusive: 12.6 µM [inhibitor, partial curve, poor fit]. With `CC(C)c1ccc(NC2CCCN(C(=O)CN3CCOC3=O)C2)cc1` (stereo not drawn) the “activity change, negative = inhibition” value was inactive: 11.8%. In the case of `Clc1ccc(-c2nnc(SCc3ccon3)o2)c(Cl)c1`, the Potency is reported as “inactive and inconclusive: 16.4 µM [inhibitor, single point]”. With `Cc1nc2nc(SCC(=O)NCCCN3CCCCC3)nn2c(C)c1Cc1ccccc1` the Potency was inconclusive: 11.2 µM [inhibitor, partial curve]. For `COc1ccc(NC(=O)c2ccc(NC(=O)CCS(=O)(=O)c3cccs3)cc2)cc1Cl`, the Potency was inconclusive: 5.01 µM [activator, partial curve]. For `CNCCc1c[nH]c2ccc(O)cc12`, the Potency was “inactive and inconclusive: 22.4 µM [inhibitor, single point]”. For `COc1cc(OC)cc(C(=O)NC(=S)N2CCCCCC2)c1`, the Potency was inconclusive: 3.55 µM [inhibitor, single point]. In the case of `CCOc1ccc(OCc2ccc(C(=O)N3CCCC3)o2)cc1`, the Potency is reported as inconclusive: 25.9 µM [inhibitor, partial curve, poor fit]. In the case of `COc1ccccc1C(=O)NNC(=O)c1cccc(F)c1`, the Potency is reported as inconclusive: 23.1 µM [inhibitor, single point]. With `CN(Cc1c(F)cccc1Cl)C(=O)CNC(=O)c1sc2ccccc2c1Cl` the Potency was inconclusive: 17.8 µM [inhibitor, single point]. For `Cc1ccc(C(=O)N2CCN(c3ccc(NC(=O)c4cccnc4)cc3)CC2)cc1`, the Potency was inconclusive: 4.47 µM [inhibitor, single point]. For `CCCn1c(-c2cccnc2Cl)nc2cc(Cl)c(Cl)cc21`, the Potency was inconclusive: 29.1 µM [inhibitor, single point]. In the case of `O=C(NNC(=O)c1nn(-c2ccc(F)cc2)ccc1=O)c1ccc(C(F)(F)F)cc1`, the “activity change, negative = inhibition” value is reported as inactive: 5.47%. With `Cc1cccc(-c2nc(Nc3ccc(O)cc3)c3ccccc3n2)c1` the Potency was inconclusive: 8.91 µM [inhibitor, partial curve, poor fit]. In the case of `CC(Sc1nnc(COc2ccc(Cl)cc2)n1-c1ccccc1)C(=O)O` (stereo not drawn), the Potency is reported as inconclusive: 35.5 µM [activator, single point].
